Measured values taken from PubChem BioAssay AID220 (DTP/NCI, 2004).
The list is a part of this screen's results and no random one: it gathers tests that were run many times, whatever their T/C, doses with no T/C, and many T/C values between a quarter and a half above the control. Further doses and runs are listed elsewhere. T/C gives the treated animals as a percentage of the vehicle group. Schedule codes are those of the source, taken here to give the interval after Q, in days (D) or hours (H), and the number of doses after X. Some T/C values carry the count of animals alive at the toxicity check (mostly the fifth day); without a count, all were alive then. Some entries give survivors of the animals treated and no T/C: the source files T/C as zero there, which appears to mark a toxic dose or a test without result, not a measured value. Survivors were counted at the toxicity check, usually on the fifth day, unless a day is given; later deaths do not show. Some doses were run more than once; their values stand side by side, smallest first.

Test system: CD8F1 mice, subcutaneous mammary adenocarcinoma, T/C%
Assay: NCI In Vivo Anticancer Drug Screen. Data for tumor model Mammary Adenocarcinoma CD8F1 (subcutaneous) in CD8F1
Details: higher T/C = larger tumour
Procedure, shortened: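 Ratio of treated to vehicle-control outcome, based on either survival or tumor size, in mice bearing transplantable tumors given the test compound.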

[1] = T/C endpoint: median tumor weight (est.), dose: 12.5 mg/kg/injection, schedule: Q07DX005 (ip), vehicle: saline with Tween-80, evaluated on day 30
[2] = T/C endpoint: median tumor weight (est.), dose: 400.0 mg/kg/injection, schedule: Q07DX005 (ip), vehicle: saline with Tween-80
[3] = T/C endpoint: median tumor weight change, dose: 400.0 mg/kg/injection, schedule: Q01DX001 (ip), vehicle: saline with Tween-80
[4] = T/C endpoint: median tumor weight change, dose: 1000.0 mg/kg/injection, schedule: Q01DX001 (ip), vehicle: saline with Tween-80

CCCCCCCCCCCCSC1=C(Cl)C(=O)C(OC)=C(OC)C1=O
T/C [1]: 137 % of control
T/C (T/C endpoint: median tumor weight (est.), dose: 50.0 mg/kg/injection, schedule: Q07DX005 (ip), vehicle: saline with Tween-80, evaluated on day 30): 135 % of control [9 of 10 alive on day 30]
survivor count (T/C endpoint: median tumor weight (est.), dose: 200.0 mg/kg/injection, schedule: Q07DX005 (ip), vehicle: saline with Tween-80): 5 of 10 on day 30
survivor count [2]: 2 of 10 on day 30

OCC1OC(n2cnc3cc(Cl)c(Cl)cc32)C(O)C1O (stereo unspecified)
T/C (T/C endpoint: median tumor weight (est.), dose: 12.5 mg/kg/injection, schedule: Q07DX005 (ip), vehicle: saline with Tween-80, evaluated on day 32): 138 % of control
T/C (T/C endpoint: median tumor weight (est.), dose: 200.0 mg/kg/injection, schedule: Q07DX005 (ip), vehicle: saline with Tween-80, evaluated on day 30): 130 % of control [9 of 10 alive]

O=CN(SSN(C=O)C1CCCCC1)C1CCCCC1
T/C [1]: 133 % of control [9 of 10 alive on day 30]
T/C (T/C endpoint: median tumor weight (est.), dose: 100.0 mg/kg/injection, schedule: Q07DX005 (ip), vehicle: saline with Tween-80, evaluated on day 30): 131 % of control [8 of 10 alive on day 30]
survivor count [2]: 3 of 10 on day 30

Cn1cnc([N+](=O)[O-])c1S(=O)(=O)NCN1CCOCC1
T/C (T/C endpoint: median tumor weight (est.), dose: 50.0 mg/kg/injection, schedule: Q07DX005 (ip), vehicle: Klucel (hydroxypropylcellulose) (HPC), evaluated on day 30): 146 % of control [9 of 10 alive]
T/C (T/C endpoint: median tumor weight (est.), dose: 200.0 mg/kg/injection, schedule: Q07DX005 (ip), vehicle: Klucel (hydroxypropylcellulose) (HPC), evaluated on day 30): 126 % of control [9 of 10 alive]
survivor count (T/C endpoint: median tumor weight (est.), dose: 200.0 mg/kg/injection, schedule: Q07DX005 (ip), vehicle: Klucel (hydroxypropylcellulose) (HPC)): 6 of 10 on day 30
survivor count (T/C endpoint: median tumor weight (est.), dose: 400.0 mg/kg/injection, schedule: Q07DX005 (ip), vehicle: Klucel (hydroxypropylcellulose) (HPC)): 0 of 10 on day 30
survivor count (T/C endpoint: median tumor weight (est.), dose: 800.0 mg/kg/injection, schedule: Q07DX005 (ip), vehicle: Klucel (hydroxypropylcellulose) (HPC)): 0 of 10 on day 30

c1csc(C[N+]23CN4CN(CN(C4)C2)C3)c1
T/C (T/C endpoint: median tumor weight change, dose: 62.5 mg/kg/injection, schedule: Q01DX001 (ip), vehicle: saline, evaluated on day 33): 148 % of control
T/C (T/C endpoint: median tumor weight change, dose: 125.0 mg/kg/injection, schedule: Q01DX001 (ip), vehicle: saline, evaluated on day 33): 130 % of control
survivor count (T/C endpoint: median tumor weight change, dose: 500.0 mg/kg/injection, schedule: Q01DX001 (ip), vehicle: saline): 0 of 10 on day 33
survivor count (T/C endpoint: median tumor weight change, dose: 1000.0 mg/kg/injection, schedule: Q01DX001 (ip), vehicle: saline): 1 of 10 on day 33

O=P(O)(NCCCl)NCCCl
survivor count (T/C endpoint: median tumor weight change, dose: 100.0 mg/kg/injection, schedule: Q01DX001 (ip), vehicle: suspension in saline): 4 of 10 on day 37
survivor count (T/C endpoint: median tumor weight change, dose: 200.0 mg/kg/injection, schedule: Q01DX001 (ip), vehicle: suspension in saline): 0 of 10 on day 37
survivor count (T/C endpoint: median tumor weight change, dose: 400.0 mg/kg/injection, schedule: Q01DX001 (ip), vehicle: saline): 2 of 10 on day 28
survivor count (T/C endpoint: median tumor weight change, dose: 400.0 mg/kg/injection, schedule: Q01DX001 (ip), vehicle: suspension in saline): 1 of 10 on day 37

C1CN2CN3CCN(CN1C3)C2
survivor count (T/C endpoint: mean tumor weight, dose: 200.0 mg/kg/injection, schedule: Q07DX006 (ip), vehicle: saline): 2 of 10

CC(=O)C1=C(O)C2(O)C(=O)c3c(c(C)c4ccc(C)c(O)c4c3O)CC2C(N)C1=O (stereo unspecified)
survivor count (T/C endpoint: median tumor weight change, dose: 150.0 mg/kg/injection, schedule: Q01DX001 (ip), vehicle: saline + alcohol): 2 of 10 on day 28
survivor count (T/C endpoint: median tumor weight change, dose: 300.0 mg/kg/injection, schedule: Q01DX001 (ip), vehicle: saline + alcohol): 0 of 10 on day 28 and 3 of 10 on day 24
survivor count (T/C endpoint: median tumor weight change, dose: 600.0 mg/kg/injection, schedule: Q01DX001 (ip), vehicle: saline + alcohol): 0 of 10 on day 24 and 0 of 10 on day 28

CC[N](CC)[Ge]([CH2]C)[CH2]C.CC[N](CC)[Ge]([CH2]C)[CH2]C
survivor count (T/C endpoint: median tumor weight (est.), dose: 100.0 mg/kg/injection, schedule: Q07DX005 (ip), vehicle: saline): 0 of 8 on day 30

C[C@]12CC[C@H](O)CC1=CC[C@@H]1[C@@H]2CC[C@]2(C)C(=O)CC[C@@H]12
T/C (T/C endpoint: median tumor weight change, dose: 125.0 mg/kg/injection, schedule: Q01DX001 (ip), vehicle: saline with Tween-80, evaluated on day 29): 144 % of control

O=C1c2ccccc2C(=O)c2c(NCCNCCO)ccc(O)c21
survivor count [3]: 4 of 10 on day 31

CCCCN(CCCC)C(Cl)=Nc1ccccc1
T/C (T/C endpoint: median tumor weight change, dose: 62.5 mg/kg/injection, schedule: Q01DX001 (ip), vehicle: Klucel (hydroxypropylcellulose) (HPC), evaluated on day 29): 125 % of control
T/C (T/C endpoint: median tumor weight change, dose: 62.5 mg/kg/injection, schedule: Q01DX001 (ip), vehicle: Klucel (hydroxypropylcellulose) (HPC), evaluated on day 32): 149 % of control
survivor count (T/C endpoint: median tumor weight change, dose: 250.0 mg/kg/injection, schedule: Q01DX001 (ip), vehicle: Klucel (hydroxypropylcellulose) (HPC)): 3 of 10 on day 32 and 6 of 10 on day 29
survivor count (T/C endpoint: median tumor weight change, dose: 500.0 mg/kg/injection, schedule: Q01DX001 (ip), vehicle: Klucel (hydroxypropylcellulose) (HPC)): 0 of 10 on day 29 and 0 of 10 on day 32
survivor count (T/C endpoint: median tumor weight change, dose: 1000.0 mg/kg/injection, schedule: Q01DX001 (ip), vehicle: Klucel (hydroxypropylcellulose) (HPC)): 0 of 10 on day 32 and 2 of 10 on day 29

CC1(C)N=C(N)N=C(N)N1c1ccc(CCCCc2ccc(S(=O)(=O)F)cc2Cl)c(Cl)c1
survivor count (T/C endpoint: median tumor weight (est.), dose: 25.0 mg/kg/injection, schedule: Q07DX005 (ip), vehicle: other): 6 of 10 on day 30
survivor count (T/C endpoint: median tumor weight (est.), dose: 50.0 mg/kg/injection, schedule: Q07DX005 (ip), vehicle: other): 5 of 10 on day 30
survivor count (T/C endpoint: median tumor weight (est.), dose: 100.0 mg/kg/injection, schedule: Q07DX005 (ip), vehicle: other): 0 of 10 on day 30
survivor count (T/C endpoint: median tumor weight (est.), dose: 200.0 mg/kg/injection, schedule: Q07DX005 (ip), vehicle: other): 0 of 10 on day 30
survivor count [3]: 6 of 10 on day 27
survivor count (T/C endpoint: median tumor weight change, dose: 450.0 mg/kg/injection, schedule: Q01DX001 (ip), vehicle: saline with Tween-80): 5 of 10 on day 35
survivor count (T/C endpoint: median tumor weight change, dose: 800.0 mg/kg/injection, schedule: Q01DX001 (ip), vehicle: saline with Tween-80): 1 of 10 on day 27
survivor count (T/C endpoint: median tumor weight change, dose: 900.0 mg/kg/injection, schedule: Q01DX001 (ip), vehicle: saline with Tween-80): 5 of 10 on day 35

CCC(=O)O[C@H]1CC[C@H]2[C@@H]3CCC4=CC(=O)CC[C@]4(C)[C@H]3CC[C@]12C
T/C (T/C endpoint: median tumor weight (est.), dose: 20.0 mg/kg/injection, schedule: Q07DX005 (ip), vehicle: Klucel (hydroxypropylcellulose) (HPC), evaluated on day 30): 138 % of control
T/C (T/C endpoint: median tumor weight (est.), dose: 40.0 mg/kg/injection, schedule: Q07DX005 (ip), vehicle: Klucel (hydroxypropylcellulose) (HPC), evaluated on day 30): 141 % of control [8 of 10 alive on day 30]
T/C (T/C endpoint: median tumor weight (est.), dose: 80.0 mg/kg/injection, schedule: Q07DX005 (ip), vehicle: Klucel (hydroxypropylcellulose) (HPC), evaluated on day 30): 126 % of control
T/C (T/C endpoint: median tumor weight (est.), dose: 320.0 mg/kg/injection, schedule: Q07DX005 (ip), vehicle: Klucel (hydroxypropylcellulose) (HPC), evaluated on day 30): 135 % of control [9 of 10 alive on day 30]

CC1OC1C(=O)C1(O)C(C)C(O)C23OC2(C(O)c2c(O)cccc2C3=O)C1O (stereo unspecified)
T/C (T/C endpoint: median tumor weight change, dose: 5.0 mg/kg/injection, schedule: Q01DX001 (ip), vehicle: Klucel (hydroxypropylcellulose) (HPC), evaluated on day 26): 125 % of control
survivor count (T/C endpoint: median tumor weight change, dose: 80.0 mg/kg/injection, schedule: Q01DX001 (ip), vehicle: Klucel (hydroxypropylcellulose) (HPC)): 0 of 10 on day 26, 6 of 10 on day 26, 6 of 10 on day 33

COC1(OC)C2C=CC1CC2
survivor count [4]: 1 of 10 on day 36

CC(=O)N(C)O
survivor count [4]: 5 of 10 on day 32
survivor count (T/C endpoint: median tumor weight change, dose: 2000.0 mg/kg/injection, schedule: Q01DX001 (ip), vehicle: saline with Tween-80): 0 of 10 on day 32

CCC1CN2C(=N1)c1ccccc1-c1cc(Cl)ccc12 (stereo unspecified)
T/C (T/C endpoint: median tumor weight (est.), dose: 6.25 mg/kg/injection, schedule: Q07DX005 (ip), vehicle: suspension in saline, evaluated on day 32): 135 % of control
survivor count (T/C endpoint: median tumor weight (est.), dose: 100.0 mg/kg/injection, schedule: Q07DX005 (ip), vehicle: suspension in saline): 1 of 10 on day 32

Cc1cc(NCCCCCCNc2cc(C)nc3cc(N(C)C)ccc23)c2ccc(N(C)C)cc2n1
survivor count (T/C endpoint: median tumor weight change, dose: 250.0 mg/kg/injection, schedule: Q01DX001 (ip), vehicle: distilled water + Tween-80 + alcohol): 0 of 10 on day 31
survivor count (T/C endpoint: median tumor weight change, dose: 500.0 mg/kg/injection, schedule: Q01DX001 (ip), vehicle: distilled water + Tween-80 + alcohol): 0 of 10 on day 31

COC12C(COC(=O)NCCO)C3=C(C(=O)C(C)=C(N)C3=O)N1CC1NC12 (stereo unspecified)
survivor count (T/C endpoint: median tumor weight change, dose: 200.0 mg/kg/injection, schedule: Q01DX001 (ip), vehicle: Klucel (hydroxypropylcellulose) (HPC)): 1 of 10 on day 31
